Data from PubChem BioAssay AID588497 (NMMLSC, 2011).
Hit rate of the full screen: of about 360,000 compounds, about 780 (0.22%) were called active. The inconclusive results got no clear call from the source; some entries with a clear call stand among them for comparison. Rule as the data show it: active = inhibition above about 35% (passing the limit was not always enough); inconclusive = no clear call, values can overlap the other calls.

Test system: Botulinum neurotoxin type F light chain protease (Clostridium botulinum)
Test: BoNT/F light chain protease inhibitors, primary screen, biochemical, flow cytometry, MLPCN library (AID 588497); also: plate controls were buffer without enzyme for full effect and enzyme alone for no effect
Conditions: Multiplex microsphere protease cleavage assay, at 10 µM, active compounds read high

SMILES	inhibition
Clc1cccc(N/N=C(\Cc2nc3ccccc3[nH]2)c2ccccc2)c1	inactive: 16.9%
Cc1nc2cc([N+](=O)[O-])ccc2c(=O)n1-c1cccc(Br)c1	inconclusive: -113%
O=C(O)c1ccccc1NCc1cccnc1	inconclusive: 39.4%
COc1ccc(C2NC(=O)CCC2[N+](=O)[O-])c(OC)c1 (stereo unspecified)	inconclusive: 12%
Cc1ccc(C)c(N2C(=O)C3C4C=CC(CC4)C3C2=O)c1 (stereo unspecified)	inconclusive: -4.8%
O=C(CSC1c2ccccc2C(=O)N1c1ccccc1)N1CCOCC1 (stereo unspecified)	inactive: -3.6%
CC(C)NC(=O)c1cccc(Cn2cc(Cl)cn2)c1	inactive: 2.6%
Cc1nc2c(=O)n(-c3cccc(C(F)(F)F)c3)nc(C)c2s1	inconclusive: -26.2%
O=C(Nc1ccc(S(=O)(=O)Nc2cnc3ccccc3n2)cc1)c1ccc([N+](=O)[O-])cc1Cl	inconclusive: -16.8%
COCCNc1ncnc2c1[nH]c1ccccc12	inconclusive: -27.6%
O=C(Oc1ccc2c(c1)OCC2=O)c1ccc(Cl)cc1	inconclusive: -35.1%
CCOc1cccc(-c2c(C(=O)N/N=C/c3sccc3C)nnn2-c2nonc2N)c1	inactive: 3.4%
CCCCCn1c(SCC(=O)OCC)nc2cc(C(=O)NCc3ccco3)ccc2c1=O	inactive: -10%
COC(=O)C1=CN(c2ccc(OC)cc2)C=C(C(=O)OC)C1c1cccc(F)c1	inconclusive: 9.2%
CCOC(=O)CN1C(=N)N(c2nc(NC(C)C)nc(NC(C)C)n2)CC1=O	inactive: 0.4%
Cc1nn(CC(=O)NCCCN2CCC(N3CCCCC3)CC2)c(=O)c2cc(-c3ccccc3)nn12	inactive: 4.6%
COc1cccc(-c2cc3nc(NCc4ccccc4F)n(C)c(=O)c3s2)c1	inactive: -8.9%
CCOCC(O)CNC(=O)c1ccc2nc(Cc3ccc(OC)c(OC)c3)oc2c1 (stereo unspecified)	inconclusive: 19.4%
O=C(O)c1ccc(CNC(=O)C23CC4CC(CC(C4)C2)C3)cc1	active: 98.2%
CC(C)C(=O)Nc1nnc(CSCc2ccccc2F)s1	inactive: -1.6%
N=c1c2c(ncn1CCCO)Oc1cc(O)ccc1C2c1ccccc1 (stereo unspecified)	inactive: -0.2%
COc1ccc(-n2nc(C(=O)NCC(=O)NCCCN3CCN(C)CC3)c3ccccc3c2=O)cc1	inactive: 23.5%
O=C(NCc1cccnc1)C1CCC(c2ccc(Cl)cc2)CC1 (stereo unspecified)	inconclusive: 51.7%

Filtered by structure: the entries above with a carbonyl joined to an NH by a bond outside any ring (10)
SMILES	inhibition
CC(C)NC(=O)c1cccc(Cn2cc(Cl)cn2)c1	inactive: 2.6%
O=C(Nc1ccc(S(=O)(=O)Nc2cnc3ccccc3n2)cc1)c1ccc([N+](=O)[O-])cc1Cl	inconclusive: -16.8%
CCOc1cccc(-c2c(C(=O)N/N=C/c3sccc3C)nnn2-c2nonc2N)c1	inactive: 3.4%
CCCCCn1c(SCC(=O)OCC)nc2cc(C(=O)NCc3ccco3)ccc2c1=O	inactive: -10%
Cc1nn(CC(=O)NCCCN2CCC(N3CCCCC3)CC2)c(=O)c2cc(-c3ccccc3)nn12	inactive: 4.6%
CCOCC(O)CNC(=O)c1ccc2nc(Cc3ccc(OC)c(OC)c3)oc2c1 (stereo unspecified)	inconclusive: 19.4%
O=C(O)c1ccc(CNC(=O)C23CC4CC(CC(C4)C2)C3)cc1	active: 98.2%
CC(C)C(=O)Nc1nnc(CSCc2ccccc2F)s1	inactive: -1.6%
COc1ccc(-n2nc(C(=O)NCC(=O)NCCCN3CCN(C)CC3)c3ccccc3c2=O)cc1	inactive: 23.5%
O=C(NCc1cccnc1)C1CCC(c2ccc(Cl)cc2)CC1 (stereo unspecified)	inconclusive: 51.7%

(continued)

SMILES	inhibition
Cc1cccc2c(-c3ccccc3)cc(=O)[nH]c12	inconclusive: 4.1%
CC(C)(C)OC(=O)NCCc1nnc(SCC(N)=O)o1	inconclusive: 1.1%
Cc1cc(NC(=O)C2CC(=O)N(c3ccccc3Cl)C2)no1 (stereo unspecified)	inactive: 1.9%
OC[C@@H]1CN(CCN2CCOCC2)C[C@H](n2cnc3c(NC4CCC4)ncnc32)O1	inactive: -1.8%
CCCCN(C)C(=O)CNC(=O)c1nn(-c2ccc(OC)cc2OC)c(=O)c2ccccc12	inactive: 20.8%
Nc1ccc(Nc2nc(-c3cc4ccccc4oc3=O)cs2)cc1	inactive: -13.4%
S=C1NCN(CCc2ccccc2)CN1Cc1ccccc1	inconclusive: 12.9%
Cc1cc(NC(=O)CSc2nnc3ccc(-c4ccc(F)cc4)nn23)no1	inconclusive: 1.4%
O=C(CCN1CCN(c2ccccc2)CC1)NNC(=O)Cc1ccc(Br)cc1	inactive: 7.5%
O=C(CN1C(=O)c2ccccc2S1(=O)=O)Nc1cccc(S(=O)(=O)N2CCCCC2)c1	inactive: 17.1%
Clc1cc2c(nn1)Nc1ccccc1S2	inconclusive: -40.1%
CC1=C(C(=O)N(C)C)CC(CC(=O)NCc2cccc3ccccc23)C(=O)N1CCC1=CCCCC1 (stereo unspecified)	inactive: -6.3%
CCNC(=S)Nc1ccc2c(c1)c(=O)n(C)n2CC=C(C)C	inactive: 0.1%
CCOC(=O)n1c(=O)[nH]c2ccc(Br)cc21	inactive: -1.8%
Nc1nonc1N/N=C\c1ccccc1	inconclusive: 12.8%
Fc1ccc(/C=N/N2CCN(Cc3ccccc3)CC2)cc1	inconclusive: -12.1%
CN(C)CCNC(=S)Nc1ccc(Cl)cc1Cl	inactive: -6.5%
N#Cc1ccc(S(=O)(=O)N2CCc3[nH]c4ccc(F)cc4c3C2)cc1	inconclusive: -0.8%
C/C(=N/OC(=O)c1ccc(C)cc1)C(=O)c1ccc(Br)cc1	inconclusive: -3.3%
Cc1noc(C)c1COc1ccccc1C(=O)NNC(=O)c1ccccc1	inconclusive: -19%
COc1cccc(N2CN(CCc3ccccc3)CNC2=S)c1	active: 49.5%
Cc1ccc(O)c(N=NC2=C(O)CC(C)(C)CC2=O)c1	inactive: -2.9%
CCOC(=O)c1nc(SC)n(C)c1C(=O)OCC	inconclusive: -25.3%
